Measurements: US12514851B2, “Use of 2,3,5-substituted thiophene compound for preventing, ameliorating, or treating ovarian cancer” (PHAROS IBIO CO., LTD, priority 2020, dated 2026)

Key:
Experiment in all cases: Inhibitory activity against ovarian cancer cell lines, agents alone (Celltiter glo cell viability)
Type in all cases: cell-based
[1] = tested on: SK-OV-3 ovarian cancer cell line; settings: SK-OV3
[2] = tested on: CAOV3 ovarian cancer cell line
[3] = tested on: SW626 ovarian cancer cell line
[4] = tested on: OVCAR3 ovarian cancer cell line

SMILES	integer ratio of IC50 relative to IC50 value (1×) of PHI-101 [1]	integer ratio of IC50 relative to IC50 value (1×) of PHI-101 [2]	integer ratio of IC50 relative to IC50 value (1×) of PHI-101 [3]	integer ratio of IC50 relative to IC50 value (1×) of PHI-101 [4]
O=C(c1cc(Cc2n[nH]c(=O)c3ccccc23)ccc1F)N1CCN(C(=O)C2CC2)CC1 [Olaparib, olaparib]	29	56	40	34
NC(=O)Nc1cc(C#Cc2cccc(F)c2)sc1C(=O)N[C@H]1CCCNC1 [PHI-101, (S)-5-((3-fluorophenyl)ethynyl)-N-(piperidin-3-yl)-3-ureido thiophene-2-carboxamide]	1	1	1	1
